Results as given in patent US20030236399A1, “Method of improving the quality of taste of natural sweetner” (Shangdong Hua Xian Stevia Co., Ltd., priority 2002, published 2003).

Assay: Comparison of quality of taste of the natural sweetener before and after the process, at sucrose-equivalent sweetness
From the text: Comparisons have been made between the natural sweetener before and after the process of the present invention and the results are illustrated as follow: […]

[1] = Sweetness equivalent to 5% sucrose solution
[2] = Sweetness equivalent to 10% sucrose solution
[3] = Sweetness equivalent to 15% sucrose solution

Molecule	Quality of taste [1]	Quality of taste [2]	Quality of taste [3]
α-glycosyl stevioside	Improve sweetness, pleasant,	Improve sweetness, pleasant,	High quality of sweetness,
C=C1C[C@@]23CC[C@H]4[C@@](C)(CCC[C@@]4(C)C(=O)O[C@@H]4O[C@H](CO)[C@@H](O)[C@H](O)[C@H]4O)[C@@H]2CC[C@]1(O[C@@H]1O[C@H](CO)[C@@H](O)[C@H](O)[C@H]1O[C@@H]1O[C@H](CO)[C@@H](O)[C@H](O)[C@H]1O)C3 [stevioside]	Sweet, Bitter, no unpleasant	Sweet, higher level of	Sweet, irritative, very high
